PubChem BioAssay AID1259308 | NCATS – 2017

Test: 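Genes whose loss raises luciferase production in HEK293 cells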 (primary screen)
System: human HEK293 embryonic kidney cells stably expressing firefly luciferase (HEK-CMV-Luc2-Hygro)
Reagents: single siRNA against human genes, 0.8 pmol siRNA per well
Time to read-out: 72 h
Detection: 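Luciferase light (ONE-Glo) measured on one replicate plate set and viability (CellTiter-Glo) on the other, scaled to a negative control siRNA, with robust z-scores and luciferase per cell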
Direction: total luciferase, z-score and total luciferase, % of control: higher = more reporter protein produced
Active means: 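An siRNA counts as active if its total luciferase robust z-score exceeds 3; genes with two or more such siRNAs out of three were retested with fresh siRNAs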
Meaning of the calls: active = raised luciferase; inactive = no rise
The deposit covers about 59,000 reagents; shown is an unselected part. Of all reagents, about 1,510 (2.6%) got an active call. 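Calls use total luciferase alone and ignore viability, so some active siRNAs may act by altering cell number.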 Entries without a mark were called inactive. The numbers tell different reagents against one gene apart. Not all columns of the deposit are shown.

Against FOXO3 #1 the deposit lists total luciferase, z-score -0.273; total luciferase, % of control 76.4.
FOXO3 #2 gave total luciferase, z-score -1.33; total luciferase, % of control 55.5.
Depletion of FOXO3 #3 came out at: total luciferase, z-score -2.13; total luciferase, % of control 39.6.
Silencing of CACNA1G #1 came out at: total luciferase, z-score 1; total luciferase, % of control 102.
CACNA1G #2 scored total luciferase, z-score 0.832; total luciferase, % of control 98.4.
Depletion of CACNA1G #3 came out at: total luciferase, z-score -0.019; total luciferase, % of control 81.5.
For ZBTB45 #1, the values are total luciferase, z-score 2.85; total luciferase, % of control 139.
Against ZBTB45 #2 the deposit lists total luciferase, z-score -0.146; total luciferase, % of control 79.
For ZBTB45 #3, the entry reads total luciferase, z-score 0.725; total luciferase, % of control 96.3.
GEMIN8 #1 scored total luciferase, z-score 1.15; total luciferase, % of control 105.
Knock-down of GEMIN8 #2 came out at: total luciferase, z-score 1.36; total luciferase, % of control 109.
Against GEMIN8 #3 the deposit lists total luciferase, z-score 1.66; total luciferase, % of control 115.
For FOCAD #1, the values are total luciferase, z-score -0.701; total luciferase, % of control 67.9.
Depletion of FOCAD #2 resulted in: total luciferase, z-score 0.987; total luciferase, % of control 102.
Knock-down of FOCAD #3 resulted in: total luciferase, z-score -1.36; total luciferase, % of control 54.8.
Against PIK3R3 #1 the deposit lists total luciferase, z-score 0.93; total luciferase, % of control 100.
For PIK3R3 #2, the values are total luciferase, z-score 3.71 (active); total luciferase, % of control 156.
With knock-down of PIK3R3 #3 the results were total luciferase, z-score 0.943; total luciferase, % of control 101.
Against RAMAC #1, the values are total luciferase, z-score 1.23; total luciferase, % of control 106.
Depletion of RAMAC #2 resulted in: total luciferase, z-score 2.36; total luciferase, % of control 129.
RAMAC #3 gave total luciferase, z-score -0.117; total luciferase, % of control 79.6.

Laid out differently: entries from further up
| gene symbol | reagent | total luciferase, z-score | total luciferase, % of control |
| --- | --- | --- | --- |
| CACNA1G | 1 | 1 | 102 |
| CACNA1G | 2 | 0.832 | 98.4 |
